# The supplement of paper PMC12067093, “Discovery and optimisation of a covalent ligand for TRIM25 and its application to targeted protein ubiquitination” (Chemical Science, 2025)
# Sequences of proteins named here, by UniProt entry; tags and fusion partners are left off. A change or cut given only in a name is not applied to a line headed by its entry.
# UniProt P52788: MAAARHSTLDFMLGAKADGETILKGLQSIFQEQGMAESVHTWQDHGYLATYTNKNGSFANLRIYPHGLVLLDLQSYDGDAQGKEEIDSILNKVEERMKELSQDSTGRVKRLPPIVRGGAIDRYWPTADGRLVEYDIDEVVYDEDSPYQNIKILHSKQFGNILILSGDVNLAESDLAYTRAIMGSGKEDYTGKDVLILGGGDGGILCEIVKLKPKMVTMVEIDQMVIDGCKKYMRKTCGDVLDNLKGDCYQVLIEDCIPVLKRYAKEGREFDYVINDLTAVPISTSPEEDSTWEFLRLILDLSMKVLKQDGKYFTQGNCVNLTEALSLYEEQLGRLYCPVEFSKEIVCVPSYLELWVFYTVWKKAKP
# UniProt Q5VYV7: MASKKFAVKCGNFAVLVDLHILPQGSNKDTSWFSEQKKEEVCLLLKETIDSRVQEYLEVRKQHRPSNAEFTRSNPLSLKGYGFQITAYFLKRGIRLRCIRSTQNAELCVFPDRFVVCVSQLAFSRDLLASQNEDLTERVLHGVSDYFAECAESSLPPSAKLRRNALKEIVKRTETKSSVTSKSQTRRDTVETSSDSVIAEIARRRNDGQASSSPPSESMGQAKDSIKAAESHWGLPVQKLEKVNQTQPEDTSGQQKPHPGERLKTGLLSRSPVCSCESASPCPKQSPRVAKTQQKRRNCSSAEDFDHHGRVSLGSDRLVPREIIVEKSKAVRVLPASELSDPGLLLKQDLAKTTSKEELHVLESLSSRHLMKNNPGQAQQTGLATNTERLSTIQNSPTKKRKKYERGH
# UniProt O95347, whole entry, looked up: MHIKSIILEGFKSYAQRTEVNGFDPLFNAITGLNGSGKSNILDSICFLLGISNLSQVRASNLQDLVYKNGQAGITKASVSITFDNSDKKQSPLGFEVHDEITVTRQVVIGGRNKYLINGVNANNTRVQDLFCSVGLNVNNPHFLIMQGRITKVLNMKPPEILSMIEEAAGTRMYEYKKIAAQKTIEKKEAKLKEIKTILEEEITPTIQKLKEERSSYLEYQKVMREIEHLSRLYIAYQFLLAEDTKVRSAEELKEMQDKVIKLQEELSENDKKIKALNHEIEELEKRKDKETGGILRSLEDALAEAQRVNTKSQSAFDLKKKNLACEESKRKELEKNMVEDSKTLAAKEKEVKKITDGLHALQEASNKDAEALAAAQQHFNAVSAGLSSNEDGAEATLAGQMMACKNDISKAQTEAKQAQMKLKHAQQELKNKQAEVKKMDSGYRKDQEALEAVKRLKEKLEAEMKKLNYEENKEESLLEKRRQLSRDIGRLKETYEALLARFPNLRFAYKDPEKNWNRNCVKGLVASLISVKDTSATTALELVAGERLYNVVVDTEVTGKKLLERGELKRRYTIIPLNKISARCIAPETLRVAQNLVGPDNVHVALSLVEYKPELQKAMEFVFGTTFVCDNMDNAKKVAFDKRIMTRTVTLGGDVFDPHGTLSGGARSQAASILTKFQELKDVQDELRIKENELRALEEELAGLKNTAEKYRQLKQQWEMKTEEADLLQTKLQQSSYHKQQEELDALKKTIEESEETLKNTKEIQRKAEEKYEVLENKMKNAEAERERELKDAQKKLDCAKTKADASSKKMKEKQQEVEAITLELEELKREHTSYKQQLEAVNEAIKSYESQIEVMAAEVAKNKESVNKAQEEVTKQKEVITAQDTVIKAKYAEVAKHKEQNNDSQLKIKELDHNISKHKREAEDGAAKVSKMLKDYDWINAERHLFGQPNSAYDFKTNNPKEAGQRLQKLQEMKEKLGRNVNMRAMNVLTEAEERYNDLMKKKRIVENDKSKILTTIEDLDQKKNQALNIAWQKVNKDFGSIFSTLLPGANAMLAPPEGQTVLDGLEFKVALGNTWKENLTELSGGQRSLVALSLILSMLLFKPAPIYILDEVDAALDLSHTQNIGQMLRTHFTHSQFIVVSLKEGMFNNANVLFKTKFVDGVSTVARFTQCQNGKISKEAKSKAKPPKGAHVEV
# UniProt Q8IY18: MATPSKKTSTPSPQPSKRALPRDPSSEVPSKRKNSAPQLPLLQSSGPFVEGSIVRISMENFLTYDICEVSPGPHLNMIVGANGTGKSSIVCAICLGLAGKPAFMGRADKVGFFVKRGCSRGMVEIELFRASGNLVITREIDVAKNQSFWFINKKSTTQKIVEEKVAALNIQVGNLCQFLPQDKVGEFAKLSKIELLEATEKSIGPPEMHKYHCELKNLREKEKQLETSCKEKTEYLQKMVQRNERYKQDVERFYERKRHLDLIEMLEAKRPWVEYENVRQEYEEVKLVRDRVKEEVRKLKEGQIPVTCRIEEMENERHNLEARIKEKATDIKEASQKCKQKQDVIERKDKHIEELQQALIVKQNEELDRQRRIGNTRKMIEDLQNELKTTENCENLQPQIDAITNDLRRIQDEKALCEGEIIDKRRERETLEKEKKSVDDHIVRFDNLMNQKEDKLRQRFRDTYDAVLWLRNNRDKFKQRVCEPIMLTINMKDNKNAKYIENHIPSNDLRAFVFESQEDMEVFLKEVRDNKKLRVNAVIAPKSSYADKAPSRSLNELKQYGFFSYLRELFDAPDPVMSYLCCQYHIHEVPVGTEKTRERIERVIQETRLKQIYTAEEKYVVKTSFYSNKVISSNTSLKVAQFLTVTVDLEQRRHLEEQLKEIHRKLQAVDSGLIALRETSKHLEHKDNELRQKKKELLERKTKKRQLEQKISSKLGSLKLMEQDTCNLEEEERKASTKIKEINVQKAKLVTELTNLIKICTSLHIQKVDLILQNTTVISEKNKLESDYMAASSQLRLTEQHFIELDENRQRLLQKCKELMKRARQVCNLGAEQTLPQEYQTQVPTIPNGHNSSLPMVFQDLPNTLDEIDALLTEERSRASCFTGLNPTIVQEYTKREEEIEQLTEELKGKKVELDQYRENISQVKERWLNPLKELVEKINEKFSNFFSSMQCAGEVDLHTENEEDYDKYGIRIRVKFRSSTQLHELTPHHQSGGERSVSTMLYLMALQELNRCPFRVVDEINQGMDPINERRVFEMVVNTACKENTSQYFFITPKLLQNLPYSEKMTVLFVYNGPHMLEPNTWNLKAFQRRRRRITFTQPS
# UniProt Q9H2G2: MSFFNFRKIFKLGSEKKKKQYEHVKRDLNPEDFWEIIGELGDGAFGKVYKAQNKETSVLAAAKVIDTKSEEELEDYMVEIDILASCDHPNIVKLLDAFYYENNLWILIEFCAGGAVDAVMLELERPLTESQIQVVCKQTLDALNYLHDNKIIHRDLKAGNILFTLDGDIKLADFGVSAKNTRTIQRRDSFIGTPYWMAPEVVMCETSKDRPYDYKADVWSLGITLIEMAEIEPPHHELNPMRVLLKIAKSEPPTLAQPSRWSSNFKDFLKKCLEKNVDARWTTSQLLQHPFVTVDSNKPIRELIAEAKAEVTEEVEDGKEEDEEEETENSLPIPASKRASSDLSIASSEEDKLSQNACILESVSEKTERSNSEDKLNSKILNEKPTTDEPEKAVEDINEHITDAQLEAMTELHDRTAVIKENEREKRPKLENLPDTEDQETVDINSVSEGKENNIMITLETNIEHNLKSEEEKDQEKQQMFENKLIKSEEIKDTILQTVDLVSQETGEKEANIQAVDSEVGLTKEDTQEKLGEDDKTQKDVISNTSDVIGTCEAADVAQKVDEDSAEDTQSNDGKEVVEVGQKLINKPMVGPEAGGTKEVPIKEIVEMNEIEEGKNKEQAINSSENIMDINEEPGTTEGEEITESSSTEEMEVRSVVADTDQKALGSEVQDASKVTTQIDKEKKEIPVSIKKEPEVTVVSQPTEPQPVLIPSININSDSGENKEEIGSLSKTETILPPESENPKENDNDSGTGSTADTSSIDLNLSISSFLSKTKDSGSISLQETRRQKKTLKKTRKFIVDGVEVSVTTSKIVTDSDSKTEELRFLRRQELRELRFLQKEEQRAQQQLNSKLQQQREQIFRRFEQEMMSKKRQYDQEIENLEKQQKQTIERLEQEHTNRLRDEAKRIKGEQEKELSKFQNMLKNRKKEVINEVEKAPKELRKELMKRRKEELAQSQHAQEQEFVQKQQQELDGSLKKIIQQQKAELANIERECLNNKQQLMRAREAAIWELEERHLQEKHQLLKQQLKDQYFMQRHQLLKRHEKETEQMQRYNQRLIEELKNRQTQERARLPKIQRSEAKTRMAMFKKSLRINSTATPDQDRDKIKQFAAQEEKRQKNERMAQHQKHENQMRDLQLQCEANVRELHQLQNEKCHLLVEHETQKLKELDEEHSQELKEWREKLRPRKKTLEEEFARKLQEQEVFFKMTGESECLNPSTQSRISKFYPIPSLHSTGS
# UniProt Q92922, whole entry, looked up: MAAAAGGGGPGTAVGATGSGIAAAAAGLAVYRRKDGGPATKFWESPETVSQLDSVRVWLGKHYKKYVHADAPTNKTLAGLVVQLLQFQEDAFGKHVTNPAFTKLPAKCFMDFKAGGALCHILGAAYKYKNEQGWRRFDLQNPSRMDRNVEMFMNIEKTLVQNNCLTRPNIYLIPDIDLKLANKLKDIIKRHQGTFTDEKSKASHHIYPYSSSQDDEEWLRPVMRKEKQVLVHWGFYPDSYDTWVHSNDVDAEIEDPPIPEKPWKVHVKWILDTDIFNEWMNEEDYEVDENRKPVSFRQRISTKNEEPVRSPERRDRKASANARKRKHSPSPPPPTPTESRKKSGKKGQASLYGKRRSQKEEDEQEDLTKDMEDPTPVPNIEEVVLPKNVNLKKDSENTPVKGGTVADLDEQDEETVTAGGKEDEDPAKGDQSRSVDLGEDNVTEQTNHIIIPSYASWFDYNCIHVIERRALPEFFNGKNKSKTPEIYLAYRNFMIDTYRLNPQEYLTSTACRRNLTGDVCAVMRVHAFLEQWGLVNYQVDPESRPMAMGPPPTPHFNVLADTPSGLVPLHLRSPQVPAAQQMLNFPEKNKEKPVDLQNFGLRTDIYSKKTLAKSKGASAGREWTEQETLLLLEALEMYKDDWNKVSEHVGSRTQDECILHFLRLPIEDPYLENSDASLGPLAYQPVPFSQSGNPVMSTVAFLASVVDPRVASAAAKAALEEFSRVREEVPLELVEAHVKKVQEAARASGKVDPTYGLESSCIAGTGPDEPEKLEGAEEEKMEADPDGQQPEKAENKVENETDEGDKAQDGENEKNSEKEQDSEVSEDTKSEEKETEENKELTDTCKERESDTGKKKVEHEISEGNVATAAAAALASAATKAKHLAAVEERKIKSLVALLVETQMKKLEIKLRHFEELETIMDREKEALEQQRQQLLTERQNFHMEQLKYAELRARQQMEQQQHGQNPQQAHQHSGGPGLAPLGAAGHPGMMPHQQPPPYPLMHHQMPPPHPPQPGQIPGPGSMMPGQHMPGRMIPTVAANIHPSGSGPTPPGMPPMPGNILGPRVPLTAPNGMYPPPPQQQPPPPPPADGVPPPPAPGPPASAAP
# The other results are listed elsewhere or left out.
# Compound: CC1Cc2ccccc2N1C(=O)C1CCCN(C1)C(=O)CCl (mixture of isomers) [TRIM25 ligand 11 (diastereomer mixture)]
# Test: probe-labelled cysteine peptide fold change vs DMSO (competition) (log2 fold change); higher = less target engagement (more negative = stronger competition)
# Details: THP-1, incubation time: 4 h
# 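Also: competitive chemoproteomic profiling in live THP-1 cells with an iodoacetamide desthiobiotin (IA-DTB) probe, comparing probe-labelled peptide intensities in compound-treated cells against DMSO-treated controls.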
target,measurement,setting,value
SMS_P52788_248_GDCYQVLIEDCIPVLK (UniProt P52788),probe-labelled cysteine peptide fold change,10 µM,0.0308
same,probe-labelled cysteine peptide fold change,50 µM,0.0591
SLX4IP_Q5VYV7_299_NCSSAEDFDHHGR (UniProt Q5VYV7),probe-labelled cysteine peptide fold change,10 µM,0.172
same,probe-labelled cysteine peptide fold change,50 µM,-0.0972
SMC2_O95347_630_AMEFVFGTTFVCDNMDNAK (UniProt O95347),probe-labelled cysteine peptide fold change,10 µM,0.107
same,probe-labelled cysteine peptide fold change,50 µM,-0.149
SMC5_Q8IY18_229_QLETSCK (UniProt Q8IY18),probe-labelled cysteine peptide fold change,10 µM,0.0413
same,probe-labelled cysteine peptide fold change,50 µM,0.0551
SLK_Q9H2G2_552_DVISNTSDVIGTCEAADVAQK (UniProt Q9H2G2),probe-labelled cysteine peptide fold change,10 µM,0.0783
same,probe-labelled cysteine peptide fold change,50 µM,-0.072
SMARCC1_Q92922_119_AGGALCHILGAAYK (UniProt Q92922),probe-labelled cysteine peptide fold change,10 µM,-0.0478
same,probe-labelled cysteine peptide fold change,50 µM,0.191
